Assay: Heparin dependent structural change by circular dichroism spectroscopy
Format: binding
Details: unconjugated peptide in MilliQ-water with 14-kDa-heparin
For “CWGGKaKaKaKaKaKaKa (CWGGKAKAKAKAKAKAKA; D-alanine residues; (6)..(6) D-amino acid; (8)..(8) D-amino acid; (10)..(10) D-amino acid; (12)..(12) D-amino acid; (14)..(14) D-amino acid; (16)..(16) D-amino acid; (18)..(18) D-amino acid) [KdA7]”, the “Heparin dependent structural change (CD)” value was “nor does one of these mutants show a structural change”. In the case of “CWGGKAKAKAKaKAKAKA (CWGGKAKAKAKAKAKAKA; D-alanine residue) [KA7-1a]”, the “Heparin dependent structural change (CD)” value is reported as “no structural change occurs”. For “CWGGkAkAkAkAkAkAkA (CWGGKAKAKAKAKAKAKA; D-lysine residues; (5)..(5) D-amino acid; (7)..(7) D-amino acid; (9)..(9) D-amino acid; (11)..(11) D-amino acid; (13)..(13) D-amino acid; (15)..(15) D-amino acid; (17)..(17) D-amino acid) [dKA7]”, the “Heparin dependent structural change (CD)” value was “nor does one of these mutants show a structural change”.

Source: patent US11523990B2, “Non-covalent, self-organzing hydrogel matrix for biotechnological applications” (DENOVOMATRIX GMBH, priority 2012, dated 2022)
